{"source": "PubChem BioAssay AID1347076", "about": "(National Center for Advancing Translational Sciences (NCATS), 2019)", "note": "Among all 400,000 compounds or so, about 13,000 (3.2%) were called active. The shares of active, inactive and inconclusive entries below differ from those in the screen. Calls come from the whole dose curve; as a rule, active = well fitted cell-killing curve with a large enough effect; inconclusive = small, poorly fitted or top-dose-only effect, or effect the other way; inactive = flat fitted curve, though single readings scatter. Potencies of inconclusive entries are doubtful fits and often do not repeat."}
{"test": "qHTS assay for MDR1-selective chemotherapeutics: Primary screen using the drug-selected MDR subline cells KB-V1; note: nearly all actives have a fitted effect of over 60% in size; note: potency is the fitted concentration of half-maximal effect", "conditions": "KB-V1 MDR cells viability, CellTiter-Glo, 72 h; series mostly up to 46.1 µM", "summary_of_the_method": "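qHTS viability screen in drug-selected KB-V1 MDR cells: 72 h compound treatment at 37 degrees C, ATP luminescence end point.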"}
{"compound": "COc1ccc(N=CC2=C(O)CC(c3ccccc3)CC2=O)c(OC)c1", "note": "(configuration not stated)", "Potency": "inconclusive: 23.1 µM [cytotoxic, single point]"}
{"compound": "COc1ccc(CCNC(=O)c2cc(C3CC3)nc3c2cnn3C(C)C)cc1", "Potency": "inconclusive: 29.1 µM [cytotoxic, single point]"}
{"compound": "COc1ccc(C(CC(=O)O)NC(=O)Nc2ccccc2)cc1OC", "note": "(configuration not stated)", "Potency": "inactive"}
{"compound": "COc1cc(NS(=O)(=O)c2ccc(NC(=O)COc3ccc(C)cc3)cc2)nc(OC)n1", "Potency": "inactive"}
{"compound": "Cc1cc(C)c2cc3c(N)c(C(=O)N4CCOCC4)sc3nc2c1", "Potency": "inactive"}
{"compound": "Cc1ncoc1C(=O)Nc1ncc([N+](=O)[O-])s1", "Potency": "inconclusive: 13 µM [cytotoxic, partial curve, poor fit]"}
{"compound": "COC(=O)C[C@@H]1CC[C@H](NS(=O)(=O)c2cccc(F)c2)[C@@H](CO)O1", "Potency": "inactive"}
{"compound": "CN(C)S(=O)(=O)N1CCC(Oc2cccc(C(=O)NCCC3=CCCCC3)c2)CC1", "Potency": "inconclusive: 29.1 µM [cytotoxic, single point]"}
{"compound": "COc1ccc(N(C)C(=O)NCc2noc3ccc(C)cc23)c(OC)c1", "Potency": "inactive"}
{"compound": "CCCNC(=O)Nc1cc(C(=O)NCc2cccc(OCC)c2)ccc1N1CCCC1", "Potency": "inactive"}
{"compound": "CCNC(=O)CC1C(=O)N(c2ccc(OC)cc2)C(=O)N1Cc1ccc(OC)cc1", "note": "(configuration not stated)", "Potency": "inconclusive: 11.6 µM [cytotoxic, partial curve, poor fit]"}
{"compound": "CSc1ccccc1OCc1cc(C(=O)N2CCCC2c2nonc2C)no1", "note": "(configuration not stated)", "Potency": "inactive"}
{"compound": "CC(C)(C)C1CCC(CN2C(Nc3ccccc3)=NC[C@@H]2Cc2ccccc2)CC1", "note": "(some centres not stated)", "Potency": "active: 18.4 µM"}
{"compound": "Cc1ccccc1Cn1c(=O)n(CCCC(=O)NCc2ccco2)c(=O)c2ccccc21", "Potency": "inactive"}
{"compound": "O=C1CCC[C@@H]2[C@@H](Cc3ccccc3)[C@@H](Nc3ccccc3)C[C@@H]3CCN1[C@@H]32", "Potency": "inconclusive: 10.3 µM [cytotoxic, partial curve, poor fit]"}
{"compound": "O=S(=O)(NCCc1ccccn1)c1cc(Cl)cc(Cl)c1O", "Potency": "inconclusive: 29.1 µM [rising, single point]"}
{"compound": "CCCNC(=O)N1CCN(S(=O)(=O)c2ccc(C)cc2)CC1", "Potency": "inconclusive: 0.116 µM [cytotoxic, partial curve, poor fit]"}
{"compound": "CCCn1c(N)c(C(=O)CSc2nnc(Cc3ccccc3)o2)c(=O)n(C)c1=O", "Potency": "active: 10.3 µM"}
{"compound": "OC(COc1cccc2ccccc12)CN1CCN(c2ccc(Cl)cc2)CC1", "note": "(configuration not stated)", "Potency": "inconclusive: 1.3 µM [rising, full curve]"}
{"compound": "NNc1nnc2c3cc(F)ccc3n(CCc3ccccc3)c2n1", "Potency": "inconclusive: 7.31 µM [cytotoxic, partial curve]"}
{"compound": "O=C(/C=C/c1ccc(Cl)c(Cl)c1)NCCCn1ccnc1", "Potency": "inconclusive: 29.1 µM [rising, single point]"}
{"compound": "COc1ccc(/C=N/NC(=O)CSCC(=O)Nc2ccccc2)cc1", "Potency": "inactive"}
{"compound": "COCCN(Cc1cc2cc3c(cc2nc1Cl)OCO3)C(=O)c1ccc(C)cc1", "Potency": "inconclusive: 9.2 µM [cytotoxic, partial curve]"}
{"compound": "O=C(Cn1nc(C(=O)O)c2ccccc2c1=O)Nc1ccccc1C(F)(F)F", "Potency": "inactive"}
{"compound": "CC(C)(C)c1ccc(C(=O)Nc2ccccc2C(=O)OCc2cc(=O)n3ccsc3n2)cc1", "Potency": "inconclusive: 16.4 µM [rising, single point]"}
{"compound": "CCOC(=O)C1=C(C)Nc2nc(C)nn2C1c1ccc(C)cc1", "note": "(configuration not stated)", "Potency": "inactive"}
{"compound": "CCOC(=O)C(NC(C)=O)C(O)c1ccc([N+](=O)[O-])cc1", "note": "(configuration not stated)", "Potency": "inconclusive: 8.2 µM [rising, partial curve, poor fit]"}
{"compound": "CNC(=S)N1N=C2c3ccccc3CCC2C1c1ccccc1Cl", "note": "(configuration not stated)", "Potency": "inconclusive: 23.1 µM [cytotoxic, partial curve, poor fit]"}
{"compound": "CCOC(=O)N1CCC(NC(=O)CCc2nc(-c3ccccc3F)no2)CC1", "Potency": "inconclusive: 18.4 µM [cytotoxic, single point]"}
{"compound": "Cc1cc2nc3c(=O)n(C)c(=O)n(C)c3nc2cc1N=CN(C)C", "Potency": "inconclusive: 29.1 µM [rising, single point]"}
{"compound": "CCOC(=O)CC(NC(=O)Cn1nnc(-c2ccccc2C)n1)c1ccc(OC)cc1", "note": "(configuration not stated)", "Potency": "inconclusive: 6.51 µM [cytotoxic, partial curve]"}
{"compound": "CCOc1ccc(OCCC(=O)OCC(=O)N(CC)c2c(N)n(Cc3ccccc3)c(=O)[nH]c2=O)cc1", "Potency": "inconclusive: 29.1 µM [rising, single point]"}
{"compound": "O=C(c1cc(-c2ccc(Cl)s2)nc2ccccc12)N1CCCC1", "Potency": "inconclusive: 8.2 µM [cytotoxic, partial curve, poor fit]"}
{"compound": "CCOC(=O)c1c(NC(=O)CNC2CCCCC2)sc(C)c1C", "Potency": "inconclusive: 0.259 µM [cytotoxic, full curve, poor fit]"}
{"compound": "COc1ccc(-c2cc(C(F)(F)F)nc(N3CCOCC3)n2)cc1OC", "Potency": "inconclusive: 7.31 µM [cytotoxic, partial curve]"}
{"compound": "COc1ccccc1OCC(=O)Nc1cc(C(F)(F)F)ccc1-n1cncn1", "Potency": "inconclusive: 29.1 µM [cytotoxic, single point]"}
{"compound": "COc1ccc([C@H]2C[C@H](O)[C@@H](n3cc(-c4ccc(F)cc4)nn3)CN2Cc2cccs2)cc1", "Potency": "inconclusive: 5.17 µM [cytotoxic, full curve, poor fit]"}
{"compound": "COc1ccc(C)cc1NC(=O)NC1CCCc2ccccc21", "note": "(configuration not stated)", "Potency": "inconclusive: 0.0092 µM [rising, full curve]"}
{"compound": "COc1ccc(Cl)cc1NC(=O)COC(=O)c1ccc(C)o1", "Potency": "inconclusive: 9.2 µM [rising, partial curve, poor fit]"}
{"compound": "CC(C)(C)NC(=O)C(c1c[nH]c2ccccc12)N(C(=O)Cn1nnc(-c2ccc(Cl)cc2)n1)c1ccccc1F", "note": "(configuration not stated)", "Potency": "inactive"}
{"compound": "O=c1cc(O)c2ccccc2[nH]1", "Potency": "inconclusive: 18.4 µM [rising, single point]"}
{"compound": "Fc1ccc(CNc2ncnc3c2c(-c2ccccc2)cn3-c2ccccc2)cc1", "Potency": "inactive"}
{"compound": "COc1cc(Cl)ccc1OCc1cc(C(=O)N(C)Cc2cn(C)nc2C)no1", "Potency": "inconclusive: 14.6 µM [cytotoxic, partial curve]"}
{"compound": "CCOC(=O)C1=CCN(S(=O)(=O)c2ccc(Br)cc2)C1c1cccc(C)c1", "note": "(configuration not stated)", "Potency": "inconclusive: 23.1 µM [cytotoxic, partial curve, poor fit]"}
{"compound": "CCN1C/C(=C/c2ccc(N3CCOCC3)cc2)C(=O)/C(=C/c2ccc(N3CCOCC3)cc2)C1", "Potency": "active: 18.4 µM"}
{"compound": "CC1(Cc2ccc(Cl)cc2)C(=O)Nc2ccc(-c3ccc(F)c(Cl)c3)cc21", "note": "(configuration not stated)", "Potency": "inconclusive: 29.1 µM [cytotoxic, single point]"}
{"compound": "NC(=O)CSc1cn(Cc2ccccc2)c2ccccc12", "Potency": "inconclusive: 25.9 µM [cytotoxic, single point]"}
{"compound": "Cc1nc2ccccn2c1-c1ccnc(SCc2ccc(Cl)cc2)n1", "Potency": "inconclusive: 3.66 µM [cytotoxic, partial curve, poor fit]"}
{"compound": "Cc1cc(=O)n2c3ccccc3n(CC(O)CN3CCCCC3)c2c1C#N", "note": "(configuration not stated)", "Potency": "inconclusive: 20.6 µM [cytotoxic, partial curve]"}
{"compound": "COc1ccc(-c2nc(S(=O)(=O)c3ccccc3)c(N3CCN(C)CC3)o2)cc1", "Potency": "inconclusive: 3.26 µM [cytotoxic, partial curve, poor fit]"}
{"compound": "CC1(C)Cc2c(ccc3ccccc23)C(=O)N1", "Potency": "inactive"}
{"compound": "COc1ccc(N(C(C)C(=O)NCCSCc2cccc(Cl)c2)S(C)(=O)=O)cc1", "note": "(configuration not stated)", "Potency": "inconclusive: 6.51 µM [cytotoxic, partial curve]"}
{"compound": "CCN(CC)c1ccc(NC(=O)c2cccc(OC)c2)c(C)c1", "Potency": "inconclusive: 14.6 µM [cytotoxic, partial curve]"}
{"compound": "O=C(NCc1ccccc1)C1C(c2ccc3c(c2)OCO3)=Nc2ccccc2N1C(=O)c1ccco1", "note": "(configuration not stated)", "Potency": "inconclusive: 4.61 µM [cytotoxic, partial curve]"}
{"compound": "O=c1cc(N2CCCCC2)c(-c2ccccc2)nn1Cc1ccccc1", "Potency": "inconclusive: 20.6 µM [cytotoxic, single point]"}
{"compound": "Cc1ccc(NC(=O)N2CCCC2C(=O)NCc2ccc(Cl)cc2)cc1", "note": "(configuration not stated)", "Potency": "inconclusive: 0.461 µM [cytotoxic, full curve, poor fit]"}
{"compound": "Cc1cc(C)c2c(=O)n(CC(=O)NC3CCCC3)sc2n1", "Potency": "inactive"}
{"compound": "Nc1nc(N)c2c(ccc3nccc32)[nH]1", "Potency": "inactive"}
{"compound": "Cc1cc(/C=C2\\NC(=O)NC2=O)c(C)n1-c1ccc(N2CCOCC2)cc1", "Potency": "inconclusive: 2.31 µM [rising, full curve]"}
{"compound": "CCN(CC)CCCCN1c2ccccc2Sc2ccccc21", "Potency": "inconclusive: 29.1 µM [cytotoxic, single point]"}
{"compound": "Cc1nc2sc3c(c2c(=O)[nH]1)CCC3", "Potency": "inactive"}
{"compound": "COc1cc(OC)c2c(-c3ccccc3)cc(=O)oc2c1C(CCN1CCCC(C)C1)c1ccc(N(C)C)cc1", "note": "(configuration not stated)", "Potency": "inconclusive: 20.6 µM [cytotoxic, single point]"}
{"compound": "CN(Cc1ccccc1)C(=O)c1cccc(NC(=O)Cc2ccc(NC(=O)C3CCCN(C(=O)C4CCCC4)C3)cc2)c1", "note": "(configuration not stated)", "Potency": "inconclusive: 23.1 µM [rising, partial curve, poor fit]"}
{"compound": "COc1ccccc1NC(=O)N(Cc1ccco1)Cc1cc2c(C)ccc(C)c2[nH]c1=O", "Potency": "inactive"}
{"compound": "Cc1ccc(C)c(N2CCN(C(=O)CCNC(=O)Cn3ccc4ccccc4c3=O)CC2)c1", "Potency": "active: 6.51 µM"}
{"compound": "NC(=O)c1cc(S(=O)(=O)NCC2CCC(C(=O)Nc3cccc(Cl)c3)CC2)cs1", "note": "(configuration not stated)", "Potency": "inconclusive: 4.11 µM [rising, full curve]"}
{"compound": "CCOC(=O)c1cc(-c2ccccc2)n(CCCC(=O)Nc2ccc(CC)cc2)c1C", "Potency": "inactive"}
